In PubChem BioAssay AID493014 (National Center for Advancing Translational Sciences (NCATS), 2011):
This is one part of the list. These are further read-outs of the screen, such as a control signal, another cell line or another target. No call is given for them. Compounds called inactive in the main read-out are mostly missing here. The note in brackets gives the kind of curve behind each potency; many fits are weak.

Experiment: qHTS Assay to Find Inhibitors of Chronic Active B-Cell Receptor Signaling
Details: ABC-DLBCL IkBa-CBG/CBR reporter, luminescence ratio (green luciferase fused to IkBa over red control in TMD8 lymphoma cells), 4 h
Procedure, shortened: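 Concentration-response series (up to 46 uM) were applied to TMD8 dual-reporter cells for 4 h at 37C with doxycycline. Green/red ratio, after filter-overlap correction, defined %Activity; red signal alone was normalised to basal cells and zero luminescence.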

[1] = measured here: CBR red luminescence, cell number
[2] = measured here: IkBa-CBG green luminescence

**Q.** Which AC50 [1] does the source give for `O=C(NCC1CCCO1)c1ccc2[nH]c3c(c2c1)CCCC3` (stereo not given) here?
**A.** 0.00461 µM [rising, full curve, poor fit]

**Q.** With `COC(=O)c1ccc(C(=O)NN)cc1` as the molecule, how does the AC50 [1] read?
**A.** 2.82 µM [falling, full curve]

**Q.** For `CCN1CCN(CCn2c(=S)[nH]c3cc4c(cc3c2=O)OCO4)CC1`, which AC50 [1] is on record?
**A.** 0.517 µM [rising, partial curve, poor fit]

**Q.** Which AC50 [1] does the source give for `O=C1CN(C(=O)c2ccc(Br)o2)C(c2ccc(F)cc2)c2cc(Cl)ccc2N1` (stereo not given) here?
**A.** 31.6 µM [falling, single point]

**Q.** For `N#CC(C(=O)C1CCCCC1)c1nc2ccccc2[nH]1` (stereo not given), which AC50 [1] is on record?
**A.** 13 µM [falling, partial curve, poor fit]

**Q.** With `COc1ccc2cc(CO)c3cc(OC)c(OC)cc3c2c1` as the molecule, how does the AC50 [1] read?
**A.** 20.6 µM [falling, single point]

**Q.** Which AC50 [1] does the source give for `CCS(=O)(=O)N1CCN(c2cnn(-c3ccccc3)c(=O)c2Cl)CC1` here?
**A.** 31.6 µM [rising, single point]

**Q.** With `COc1ccc(C(=O)N/N=C(\C)c2ccccn2)cc1OC` as the molecule, how does the AC50 [1] read?
**A.** 35.5 µM [rising, single point]

**Q.** What about the AC50 [2] of the same molecule?
**A.** 35.5 µM [falling, single point]

**Q.** For `Cc1cccc(CSc2ccc3nnc(-c4ccccn4)n3n2)c1`, which AC50 [1] is on record?
**A.** 1.41 µM [falling, full curve, poor fit]

**Q.** With `Cc1ccccc1NCC(=O)N/N=C/C(Br)=C/c1ccccc1` as the molecule, how does the AC50 [1] read?
**A.** 1.3 µM [rising, full curve, poor fit]

**Q.** Which AC50 [1] does the source give for `COc1cccc(N/C(SC)=C(/C#N)C(=O)NCc2cccs2)c1` here?
**A.** 1.58 µM [rising, partial curve]

**Q.** Which AC50 [1] does the source give for `O=C(Nc1ccc2c(c1)nc1n2CCN(Cc2ccccc2)C1)c1cccs1` here?
**A.** 32.6 µM [falling, single point]

**Q.** For `COc1ccccc1C(CNC(=O)c1cccc(S(=O)(=O)Nc2ccc(C)cc2)c1)N1CCCC1` (stereo not given), which AC50 [1] is on record?
**A.** 23.1 µM [falling, single point]

**Q.** With `O=C(Cc1ccc(Cl)cc1Cl)OCC(=O)c1ccc[nH]1` as the molecule, how does the AC50 [1] read?
**A.** 6.51 µM [rising, single point]

**Q.** Which AC50 [1] does the source give for `COc1ccc2nc(-c3ccccn3)[nH]c2c1` here?
**A.** 35.5 µM [falling, single point]

**Q.** With `COc1ccc(-c2nc3nc(C)c(Cc4ccccc4)c(=O)n3[nH]2)cc1` as the molecule, how does the AC50 [1] read?
**A.** 1.3 µM [falling, full curve]

**Q.** For `CCOc1nc2ccccc2cc1/C=C/C(=O)O`, which AC50 [1] is on record?
**A.** 35.5 µM [rising, single point]

**Q.** With `CCN1CCN(C(=O)c2cn(CCOC)c(=O)c3c2c2ccccc2n3C)CC1` as the molecule, how does the AC50 [1] read?
**A.** 11.6 µM [rising, partial curve]

**Q.** With `Cc1cc(-c2ccccc2)nn1-c1nc2c(c(=O)[nH]c(=O)n2C)n1C` as the molecule, how does the AC50 [1] read?
**A.** 13 µM [rising, partial curve, poor fit]

**Q.** Which AC50 [1] does the source give for `COCCn1c(=O)[nH]c2cc(C(=O)Nc3cccc(C(C)=O)c3)ccc2c1=O` here?
**A.** 0.316 µM [falling, partial curve, poor fit]

**Q.** Which AC50 [1] does the source give for `COc1ccc(Cl)cc1NC(=O)CN1C(=O)CCS(=O)(=O)c2ccccc21` here?
**A.** 0.103 µM [rising, full curve, poor fit]

**Q.** With `COc1ccc(C(=O)NCCc2c[nH]c3ccccc23)cc1OC` as the molecule, how does the AC50 [1] read?
**A.** 20 µM [falling, partial curve, poor fit]

**Q.** Which AC50 [1] does the source give for `COc1ccc2[nH]c(=O)c(CN(C(=O)COc3ccccc3)C(C)C)cc2c1` here?
**A.** 1.41 µM [rising, partial curve, poor fit]

**Q.** With `Cc1cc(C)c2oc(C(=O)Nc3ccc(S(=O)(=O)Nc4nccc(C)n4)cc3)cc(=O)c2c1` as the molecule, how does the AC50 [1] read?
**A.** 0.562 µM [rising, full curve, poor fit]

**Q.** With `O=C(Nc1nc2ccccc2s1)c1ccc([N+](=O)[O-])o1` as the molecule, how does the AC50 [1] read?
**A.** 1.26 µM [falling, full curve]

**Q.** Which AC50 [1] does the source give for `CC(C(=O)O/N=C(\N)c1ccccn1)c1ccc([N+](=O)[O-])cc1` (stereo not given) here?
**A.** 7.94 µM [falling, partial curve, poor fit]

**Q.** Which AC50 [1] does the source give for `COc1ccc(-c2oc3cccnc3c2C#CCO)cc1` here?
**A.** 3.98 µM [rising, partial curve, poor fit]

**Q.** Which AC50 [1] does the source give for `COc1ccccc1-c1cc(C(=O)NC(C)c2ccccc2)no1` (stereo not given) here?
**A.** 15.8 µM [falling, partial curve, poor fit]

**Q.** For `O=C(CSCc1ccc(F)cc1)Nc1nc2c(s1)CCCC2`, which AC50 [1] is on record?
**A.** 7.08 µM [rising, partial curve, poor fit]

**Q.** Which AC50 [1] does the source give for `Cc1cc(C)n(Cc2ccc(C(=O)N/N=C/c3ccc(-c4ccc([N+](=O)[O-])cc4)o3)o2)n1` here?
**A.** 7.94 µM [rising, partial curve]

**Q.** With `Cc1ccc(Oc2nc3ccccc3n3cccc23)cc1` as the molecule, how does the AC50 [1] read?
**A.** 7.31 µM [rising, partial curve]

**Q.** Which AC50 [1] does the source give for `CCOc1ccc(NC(=O)N(CCN(C)C)C(C)c2cccnc2)cc1` (stereo not given) here?
**A.** 20 µM [rising, single point]

**Q.** For `Cc1ccccc1OCC(=O)NN1Cc2ccccc2C1=N`, which AC50 [1] is on record?
**A.** 6.51 µM [rising, partial curve, poor fit]

**Q.** With `COc1ccc(CCNc2oc(-c3ccccc3OC)nc2C#N)cc1` as the molecule, how does the AC50 [1] read?
**A.** 29.1 µM [falling, single point]

**Q.** With `Cc1ccc(Cl)cc1N1CCN(C(=O)c2ccc(CS(=O)Cc3ccc(Cl)cc3)o2)CC1` (stereo not given) as the molecule, how does the AC50 [1] read?
**A.** 15.8 µM [falling, single point]

**Q.** Which AC50 [1] does the source give for `CCOC(=O)c1cc(C(=O)Nc2cccc(C)c2)nn1C` here?
**A.** 12.6 µM [falling, partial curve]

**Q.** With `CC(=O)NCCOc1cccc2ccccc12` as the molecule, how does the AC50 [1] read?
**A.** 8.2 µM [rising, single point]

**Q.** Which AC50 [1] does the source give for `COc1cccc(NC(=S)NN=C2CCCCCC2)c1` here?
**A.** 0.794 µM [falling, full curve]

**Q.** And the AC50 [2]?
**A.** 25.1 µM [falling, single point]

**Q.** For `Cc1ccc(SCC(=O)Nc2ncc(C)s2)cc1`, which AC50 [1] is on record?
**A.** 12.6 µM [falling, partial curve, poor fit]

**Q.** With `COc1ccc(-c2noc(CSc3nc(N)cc(=O)[nH]3)n2)cc1OC` as the molecule, how does the AC50 [1] read?
**A.** 10 µM [rising, partial curve, poor fit]

**Q.** With `O=C(COc1ccc(C(=O)c2ccccc2)cc1)NCc1ccc(F)cc1` as the molecule, how does the AC50 [1] read?
**A.** 3.26 µM [rising, single point]

**Q.** And the AC50 [2]?
**A.** 3.26 µM [falling, full curve]

**Q.** Which AC50 [1] does the source give for `CCOC(=O)Cc1csc(NC(=O)COc2ccccc2)n1` here?
**A.** 29.1 µM [falling, single point]

**Q.** For `CNc1cc([N+](=O)[O-])ccc1OCc1ccccc1`, which AC50 [1] is on record?
**A.** 1 µM [rising, partial curve, poor fit]

**Q.** With `O=C(CNC(=O)c1ccc(-c2ccccc2)cc1)OCc1ccc(Br)cc1` as the molecule, how does the AC50 [1] read?
**A.** 29.1 µM [rising, single point]

**Q.** For `N#Cc1cc(-c2ccccc2)nnc1Sc1ccccc1`, which AC50 [1] is on record?
**A.** 0.517 µM [rising, full curve, poor fit]

**Q.** With `Cc1ccc(/C=N/NC(=O)NC2CCCCC2)o1` as the molecule, how does the AC50 [1] read?
**A.** 0.398 µM [falling, full curve, poor fit]

**Q.** With `CCOc1ccc(N2C(=O)c3cccnc3C2Nc2ccc(F)cc2)cc1` (stereo not given) as the molecule, how does the AC50 [1] read?
**A.** 0.447 µM [falling, full curve, poor fit]

**Q.** With `COc1cccc(-c2ccc(SCC(=O)c3ccccc3)nn2)c1` as the molecule, how does the AC50 [1] read?
**A.** 35.5 µM [falling, single point]

**Q.** With `Cc1ccc(/C=C2/SC(=S)N(CCC(=O)N3CCN(c4ccccc4)CC3)C2=O)cc1` as the molecule, how does the AC50 [1] read?
**A.** 16.4 µM [falling, single point]

**Q.** Which AC50 [1] does the source give for `Cc1ccc(NC(=O)COC(=O)CN2CSCC2=O)cc1C` here?
**A.** 12.6 µM [rising, partial curve]

**Q.** Which AC50 [1] does the source give for `COC(=O)c1ccc2[nH]c(CO)c(-c3ccccc3)c2c1` here?
**A.** 35.5 µM [falling, single point]

**Q.** For `CCN(CC)CCN(C)C1CCC(c2ccccc2)CC1` (stereo not given), which AC50 [1] is on record?
**A.** 32.6 µM [falling, single point]

**Q.** With `Cc1nc(-c2ccc(S(=O)(=O)Nc3ccc(Br)cc3Cl)s2)cs1` as the molecule, how does the AC50 [1] read?
**A.** 15.8 µM [rising, single point]

**Q.** For `CC(C)C(C(=O)O)N1C(=O)/C(=C/C=C/c2ccco2)SC1=S` (stereo not given), which AC50 [1] is on record?
**A.** 17.8 µM [falling, single point]

**Q.** For `C=CCOC(=O)C1=C[C@@H](C2CCCCC2)C[C@@H](OCc2ccc(CO)cc2)O1`, which AC50 [1] is on record?
**A.** 22.4 µM [rising, single point]

**Q.** With `Cc1ccc(C)c(S(=O)(=O)N2CCCOC2CNC(=O)C(=O)NCc2ccncc2)c1` (stereo not given) as the molecule, how does the AC50 [1] read?
**A.** 0.447 µM [falling, partial curve, poor fit]

**Q.** For `Cc1cccc(NC(=O)CSc2c3c(nc4ccccc24)CCC3)n1`, which AC50 [1] is on record?
**A.** 3.98 µM [falling, partial curve, poor fit]

**Q.** Which AC50 [1] does the source give for `CCC(C)Sc1cccc(-c2nc3cc(C)ccn3c2NCc2ccccc2)c1` (stereo not given) here?
**A.** 29.1 µM [falling, single point]

**Q.** What about the AC50 [2] of the same molecule?
**A.** 16.4 µM [rising, single point]

**Q.** Which AC50 [1] does the source give for `Cc1nc(NC(=S)Nc2ccccc2)sc1C` here?
**A.** 7.08 µM [falling, partial curve]

**Q.** And the AC50 [2]?
**A.** 3.98 µM [falling, full curve]

**Q.** Which AC50 [1] does the source give for `COc1cc(/C=C/C(=O)N(Cc2ccccc2)c2ccccn2)cc(OC)c1OC` here?
**A.** 3.66 µM [rising, partial curve, poor fit]

**Q.** With `Cc1nc(NC(=O)/C=C/c2ccccc2)n[nH]1` as the molecule, how does the AC50 [1] read?
**A.** 18.4 µM [falling, partial curve]

**Q.** For `O=C(CCN1C(=O)c2ccccc2C1=O)Nc1ccccn1`, which AC50 [1] is on record?
**A.** 29.1 µM [falling, single point]

**Q.** For `CCOc1ncccc1C(=O)Nc1cccc(S(=O)(=O)N2CCCCC2)c1`, which AC50 [1] is on record?
**A.** 2.59 µM [falling, partial curve, poor fit]

**Q.** With `CCOC(=O)c1sc(NC(=O)CSc2ncn[nH]2)c(C#N)c1C` as the molecule, how does the AC50 [1] read?
**A.** 1.3 µM [rising, full curve, poor fit]

**Q.** For `CCOC(=O)C(C)Sc1ncnc2c1nnn2-c1ccc(F)cc1` (stereo not given), which AC50 [1] is on record?
**A.** 11.2 µM [falling, single point]
